Laboratory results: PubChem BioAssay AID743458 (Peter MacCallum Cancer Centre, 2014)
Assay: 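Identify genes whose loss lifts vorinostat resistance in colon cancer cells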 (follow-up of hits). System: human HCT116-VR colon cancer cells made resistant to vorinostat. Knock-down reagent: single siRNA or pool against human genes, 25 nM per single siRNA. Time to read-out: about 72 h after transfection, including 24 h of drug. Treatment: vorinostat, 2.5 µM final, for 24 h. Measurement: 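Live-cell fluorescent viability and luminescent caspase 3/7 activity after vorinostat treatment, background subtracted, mean of duplicate plates, as fold change over mock-transfected wells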. Scale: viability relative to mock: higher = more living cells than mock; caspase activity relative to mock: higher = more apoptosis than mock. Hit rule: 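Active means a reduced-viability or caspase-activation class, anything else inactive; classes could only be given to wells that looked healthy when left untreated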.
The whole screen tested about 1,800 reagents; below is an unselected part. 732 of them (41%) were called active. 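Calls are per siRNA reagent; a gene was deemed confirmed only if most of its four siRNAs scored.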

How did the screen score RASGRP2 [SID134246206]?
viability relative to mock: 0.21; caspase activity relative to mock: 7.65; viability hit class: reduced viability; caspase hit class: caspase activation; Outcome: active

Which result is listed for RASGRP2 [SID134246207]?
viability relative to mock: 0.66; caspase activity relative to mock: 1.23; viability hit class: no change; caspase hit class: no change; Outcome: inactive

What did the screen give for RASGRP2 [SID134246208]?
viability relative to mock: 1.03; caspase activity relative to mock: 1.19; viability hit class: no change; caspase hit class: no change; Outcome: inactive

Which result is listed for RASGRP2 [SID152147488]?
viability relative to mock: 0.78; caspase activity relative to mock: 1.19; viability hit class: no change; caspase hit class: no change; Outcome: inactive

For ZBTB38 [SID135616895], how do the results read?
viability relative to mock: 0.34; caspase activity relative to mock: 1.24; viability hit class: reduced viability; caspase hit class: no change; Outcome: active

With ZBTB38 [SID135616896], what does the deposit list?
viability relative to mock: 1.01; caspase activity relative to mock: 1.42; viability hit class: no change; caspase hit class: no change; Outcome: inactive

For ZBTB38 [SID135616897], how do the results read?
viability relative to mock: 1.05; caspase activity relative to mock: 2.34; viability hit class: no change; caspase hit class: no change; Outcome: inactive

How did the screen score ZBTB38 [SID135616898]?
viability relative to mock: 0.68; caspase activity relative to mock: 1.68; viability hit class: no change; caspase hit class: no change; Outcome: inactive

With ZC3H11D [SID134273045], what does the deposit list?
viability relative to mock: 1.03; caspase activity relative to mock: 1.19; viability hit class: no change; caspase hit class: no change; Outcome: inactive

What is on record for ZC3H11D [SID134273046]?
viability relative to mock: 0.95; caspase activity relative to mock: 1.34; viability hit class: no change; caspase hit class: no change; Outcome: inactive

With ZC3H11D [SID134273047], what does the deposit list?
viability relative to mock: 0.96; caspase activity relative to mock: 1.5; viability hit class: no change; caspase hit class: no change; Outcome: inactive

For ZC3H11D [SID134273048], what was measured?
viability relative to mock: 1.02; caspase activity relative to mock: 0.94; viability hit class: no change; caspase hit class: no change; Outcome: inactive

What did the screen give for RBBP9 [SID134275918]?
viability relative to mock: 0.18; caspase activity relative to mock: 4.73; viability hit class: reduced viability; caspase hit class: caspase activation; Outcome: active

For RBBP9 [SID134275919], what does the deposit list?
viability relative to mock: 0.94; caspase activity relative to mock: 1.56; viability hit class: no change; caspase hit class: no change; Outcome: inactive

For RBBP9 [SID134275920], what was measured?
viability relative to mock: 0.71; caspase activity relative to mock: 2.53; viability hit class: no change; caspase hit class: no change; Outcome: inactive

For RBBP9 [SID135615306], what does the deposit list?
viability relative to mock: 0.72; caspase activity relative to mock: 1.32; viability hit class: no change; caspase hit class: no change; Outcome: inactive

5 of these entries in another layout.
gene	PubChem SID	viability relative to mock	caspase activity relative to mock	viability hit class	caspase hit class	Outcome
ZC3H11D	SID134273048	1.02	0.94	no change	no change	inactive
RBBP9	SID134275918	0.18	4.73	reduced viability	caspase activation	active
RBBP9	SID134275919	0.94	1.56	no change	no change	inactive
RBBP9	SID134275920	0.71	2.53	no change	no change	inactive
RBBP9	SID135615306	0.72	1.32	no change	no change	inactive

More reagents follow.
For TRIM49B [SID134296329], how do the results read?
viability relative to mock: 0.6; caspase activity relative to mock: 2.25; viability hit class: no change; caspase hit class: no change; Outcome: inactive

Which result is listed for TRIM49B [SID134296330]?
viability relative to mock: 0.94; caspase activity relative to mock: 1.07; viability hit class: no change; caspase hit class: no change; Outcome: inactive

What did the screen give for TRIM49B [SID134296331]?
viability relative to mock: 0.78; caspase activity relative to mock: 0.98; viability hit class: no change; caspase hit class: no change; Outcome: inactive

How did the screen score TRIM49B [SID134296332]?
viability relative to mock: 0.87; caspase activity relative to mock: 1.42; viability hit class: no change; caspase hit class: no change; Outcome: inactive

Which result is listed for GATA1 [SID134247081]?
viability relative to mock: 0.65; caspase activity relative to mock: 4.02; viability hit class: no change; caspase hit class: caspase activation; Outcome: active

What did the screen give for GATA1 [SID134247082]?
viability relative to mock: 0.68; caspase activity relative to mock: 2.23; viability hit class: no change; caspase hit class: no change; Outcome: inactive

For GATA1 [SID134247083], what was measured?
viability relative to mock: 0.48; caspase activity relative to mock: 4.65; viability hit class: reduced viability; caspase hit class: caspase activation; Outcome: active

For GATA1 [SID134247084], what was measured?
viability relative to mock: 0.71; caspase activity relative to mock: 5.55; viability hit class: no change; caspase hit class: caspase activation; Outcome: active

For NSF [SID135612925], how do the results read?
viability relative to mock: 1.14; caspase activity relative to mock: 2.3; viability hit class: no change; caspase hit class: no change; Outcome: inactive

Which result is listed for NSF [SID135612926]?
viability relative to mock: 0.92; caspase activity relative to mock: 1.94; viability hit class: no change; caspase hit class: no change; Outcome: inactive

Which result is listed for NSF [SID135612927]?
viability relative to mock: 0.71; caspase activity relative to mock: 2.95; viability hit class: no change; caspase hit class: caspase activation; Outcome: active

For NSF [SID135612928], how do the results read?
viability relative to mock: 0.92; caspase activity relative to mock: 1.23; viability hit class: no change; caspase hit class: no change; Outcome: inactive
